The supplement of paper PMC12578635
The list shows a part of the results. Cut-off read from the data, not from the text of the source: active = 150% or more and inactive = the rest. Single values are uncertain, as repeats are few or missing.

What follows are compounds tested on Staphylococcus aureus JE2-lux inside RAW 264.7 macrophages (assay: intracellular bacterial bioluminescence relative to DMSO vehicle; higher = higher intracellular bacterial metabolic activity). Conditions: 10 µM; treatment time 4 h; gentamicin 50 µg/ml.

Structure (SMILES)	intracellular bacterial bioluminescence
CCNC(=O)c1n[nH]c2c1CCc1cc(OC)ccc1-2	inactive: 78.9%
Cc1ccc(N2CC(C(=O)N3CCN(c4ncnc5c4nnn5-c4ccc(C)cc4)CC3)CC2=O)cc1 (configuration not stated)	inactive: 91.7%
O=C(O)CCn1nc(Nc2ccccc2)n(-c2ccccc2)c1=S	inactive: 100%
COCCn1c(SCC(=O)N2CCc3ccccc32)nc2cccnc21	inactive: 68.3%
COc1ccc2nc(NC(=O)CSc3nnc4nc(C)cc(C)n34)sc2c1	inactive: 67.6%
CSc1ccc(NC(=O)NCCc2ccncc2)cc1	inactive: 96.3%
CC(C)c1cc(N2CCN(C(=O)c3ccco3)CC2)n2c(nc3ccccc32)c1C#N	inactive: 96.3%
COc1cccc(-c2cc3nc(C)c(Cl)c(O)n3n2)c1	inactive: 122%
COCCCNc1c(-c2ccc(C)cc2)nc2sc3cc(C)ccc3n12	inactive: 97%
O=C1NC2=C(C(=O)N(CCO)C2)C(c2ccc(OCc3ccccc3)cc2)N1 (configuration not stated)	inactive: 100%
CC(=O)C(C)n1c(=O)c2c(nc3n(-c4ccc(F)cc4)c(-c4ccccc4)cn23)n(C)c1=O (configuration not stated)	inactive: 91.4%
Cc1cc(-c2csc(S(=O)(=O)Nc3cccc(Br)c3)c2)on1	inactive: 22.8%
CC12CC(NC(=O)N1c1cccc(C(=O)O)c1)c1cc(Br)ccc1O2 (configuration not stated)	inactive: 115%
Cc1c(C(=O)Nc2c(C(=O)Nc3ccc4c(c3)OCCO4)oc3ccccc23)cccc1[N+](=O)[O-]	inactive: 72.1%
O=C(Cn1cnc2c(nnn2Cc2ccc(F)cc2)c1=O)Nc1ccccc1C(F)(F)F	inactive: 76.2%
COc1ccc(-c2n[nH]c3nc(-c4ccc(Cl)cc4)cc(C(=O)NCc4ccc(C)cc4)c23)cc1	active: 175%
Cc1nn(Cc2c(F)cccc2Cl)c(=O)c2noc(C)c12	inactive: 72.8%
C=CCn1c(SCC(=O)Nc2sc3c(c2C(=O)OCC)CCC3)nc2ccccc2c1=O	inactive: 101%
CCOC(=O)c1c(C)oc2ncn(Cc3ccccc3)c(=O)c12	inactive: 79.6%
COc1ccccc1N1C(=O)N(c2ccccc2Cl)C2CS(=O)(=O)CC21 (configuration not stated)	inactive: 104%
N#Cc1cc2cc3c(cc2nc1N1CCCN(C(=O)Nc2ccc(Cl)cc2)CC1)OCO3	inactive: 74.7%
COc1cc(NC(=O)CSC2=NS(=O)(=O)c3ccccc3N2)cc(OC)c1	inactive: 98.1%
O=C(NNc1nc2c(Cl)cccc2s1)C1COc2ccccc2O1 (configuration not stated)	inactive: 69.9%

Structure (SMILES)	intracellular bacterial bioluminescence
Cn1c(=O)c2c(SCC(=O)NCc3ccco3)ccnc2n(C)c1=O	inactive: 43.7%
COc1cc2c(cc1OC)C(COc1ccc([N+](=O)[O-])cc1)N(C(=S)NC(C)(C)C)CC2 (configuration not stated)	inactive: 63.8%
COc1ccc(CCN2CCc3c(C)c(C#N)c4nc5ccccc5n4c32)cc1OC	inactive: 52.3%
CCN(CCNC(=O)c1ccc2nc(N3CCN(c4ncccn4)CC3)ccc2n1)c1cccc(C)c1	inactive: 104%
CC(C)c1cc(C(=O)NC(c2ccncc2)c2ccc(Cl)cc2)n(C)n1 (configuration not stated)	inactive: 106%
O=C(NC1CC1)c1ccc(S(=O)(=O)N2CCC(NC(=O)c3cccc(F)c3)CC2)cc1	inactive: 104%
Cc1cc2nc(NC(=O)Nc3cccc(F)c3)sc2cc1C	inactive: 78.9%
CC1CCCN(c2ccc(NS(=O)(=O)c3ccc4[nH]c(=O)[nH]c(=O)c4c3)cc2)C1 (configuration not stated)	inactive: 113%
CC1=NNC(=O)/C1=N\Nc1ccc(S(=O)(=O)N2CCOCC2)cc1	inactive: 68.4%
O=C(CSc1ncnc2c1oc1ccccc12)Nc1ccc(Br)cc1	inactive: 79%
CC1Cc2ccccc2N1C(=O)CCn1c(=O)oc2ccccc21 (configuration not stated)	inactive: 75.9%
COc1ccccc1C(=O)n1nc(-c2ccccc2Cl)nc1N	inactive: 136%
Cc1sc2nc(SC/C=C/c3ccccc3)[nH]c(=O)c2c1C	inactive: 97.3%
Cc1cc(Nc2ccc(C)c(F)c2)n2nc(Cc3cccc(F)c3)nc2n1	inactive: 48.5%
COc1cccc(-n2c(C)c(C)c3c2ncn2nc(-c4ccccc4Br)nc32)c1	inactive: 96.3%
Cc1ccc(-c2cnc3c(-c4ccc(Cl)cc4)cnn3c2N)cc1	inactive: 119%
CC12CC(NC(=O)N1Cc1ccccc1)c1ccccc1O2 (configuration not stated)	inactive: 95.8%
CCn1c(=O)[nH]c(=O)c2cnc(-c3ccc(OC)cc3)nc21	inactive: 104%
CCOC(=O)c1ccc(CC2SC(=N)NC2=O)cc1 (configuration not stated)	inactive: 128%
COc1ccc(C(NC(=O)c2cccc3c(C)c(C)[nH]c23)c2ccncc2)cc1 (configuration not stated)	inactive: 82.7%
Oc1nc(SCc2c(F)cccc2Cl)nc2[nH]cnc12	inactive: 114%
COC(=O)c1sc2nc(N)c(C#N)c(-c3ccco3)c2c1N	inactive: 114%
Cc1cccc(-c2nc(N)n(C(=O)Cc3ccc(Cl)cc3)n2)c1	inactive: 118%

Structure (SMILES)	intracellular bacterial bioluminescence
COc1cccc(-c2csc(/C(C#N)=C/Nc3cc(Cl)ccc3OC)n2)c1	inactive: 98.1%
CC(=O)Nc1ccc(S(=O)(=O)N2CCN=C2SCc2ccc([N+](=O)[O-])cc2)cc1	inactive: 96.9%
CCCCC(=O)N1CCN(c2nc3ccccc3cc2-c2noc(C)n2)CC1	inactive: 131%
COc1ccc(-n2nnc3c(SCC(=O)NCC4CCCO4)ncnc32)cc1 (configuration not stated)	inactive: 82.1%
O=C(CCN1C(=O)c2cccc3cccc(c23)C1=O)NC1CCS(=O)(=O)C1 (configuration not stated)	inactive: 113%
CC(=O)c1ccc(Nc2nc(C)nc3c2c(C)c(C)n3-c2ccc(F)cc2)cc1	inactive: 90.1%
Cc1nc2c(ccc3nc(NC(=O)c4cc(-c5cccs5)nc5ccccc45)sc32)s1	inactive: 96.8%
O=C(CSc1nc2c(cnn2-c2ccc(F)cc2)c(=O)[nH]1)N1CCOCC1	inactive: 107%
CCOc1ccc(C(=O)NC2CC3CCCC(C2)N3C(=O)Nc2ccc(F)cc2)cc1 (configuration not stated)	inactive: 78.3%
COc1ccc(-c2nnc3ccc(SCC(=O)Nc4c(C)cc(C)cc4C)nn23)cc1	inactive: 45.5%
O=C(Nc1nc2ccc3ccccc3c2s1)c1c(F)cccc1F	inactive: 68.5%
COc1ccc2c(Cl)c(C(=O)NCCC3=CCCCC3)sc2c1	inactive: 112%
CCn1c(SCC(=O)Nc2ccccc2C(=O)OC)nc2cccnc21	inactive: 72%
Cc1ccc(S(=O)(=O)Nc2cc(C(=O)N(C)Cc3ccccc3)cnc2N2CCNCC2)cc1C	inactive: 56.9%
CC(NC(=O)c1ccccc1)c1nc(-c2ccc3c(c2)nnn3C)no1 (configuration not stated)	inactive: 98.9%
CC(=O)NC(=O)c1cc2c(ccc3ccccc32)o/c1=N\c1ccc(F)cc1F	inactive: 95.5%
Cc1oc(-c2ccccc2Cl)nc1CS(=O)(=O)CC(=O)NCc1ccc(F)cc1	inactive: 65.3%
COc1ccc(OC)c(NC(=O)c2sc3[nH]c(=O)c(C(=O)O)cc3c2N)c1	inactive: 101%
Cc1ccc(S(=O)(=O)Nc2ccc3nncn3n2)cc1	inactive: 73.7%
CCCCN1CCn2c(nc3cc(NC(=O)NC4CCCCC4)ccc32)C1	inactive: 46.8%
O=C(C1=C(O)C(=O)N(Cc2cccnc2)C1c1cccc(Br)c1)c1cccs1 (configuration not stated)	inactive: 139%
COc1ccc(C(=O)NC2CCN(C(=O)NCc3ccccc3)CC2)cc1	inactive: 89.6%
CCOc1cccc2c1OC(c1cccnc1)N1N=C(c3cccs3)CC21 (configuration not stated)	inactive: 56.8%

Structure (SMILES)	intracellular bacterial bioluminescence
O=C(c1ccc2c(c1)OCCO2)C1CCN(C(=S)Nc2ccc(F)cc2)CC1	inactive: 67%
COc1ccc(NC(C)=O)cc1NC(=O)c1cn(C)nc1OC	inactive: 114%
Cc1cccc(-c2ccc(C(=O)NCC(C)C)cn2)c1	inactive: 42.3%
COC(=O)C1=C(NC(=O)c2cc3ccccc3oc2=O)CCS1	inactive: 83.8%
Cc1cc(NC(=O)CSc2nc(=O)cc(N)n2-c2ccc(F)cc2)no1	inactive: 114%
CCN1CCCC1CNC(=O)C(=O)c1cn(CC(=O)N2CCCCCC2)c2ccccc12 (configuration not stated)	inactive: 85.6%
COc1ccc2nc(NC(=O)CSc3ncccc3C(=O)O)sc2c1	inactive: 125%
Cc1ccc(NCc2cc3cc4c(cc3n(CC(=O)Nc3cc(F)ccc3F)c2=O)OCCO4)cc1	inactive: 67.4%
CCc1cccc2c(O)c(C(=O)NCc3cccnc3)cnc12	inactive: 94.1%
Cc1nc2nc(Cc3cccc(F)c3)nn2c(O)c1C	inactive: 87.3%
CC(C)c1csc(-c2csc(S(=O)(=O)Nc3ccc(Br)cc3F)c2)n1	inactive: 98.5%
CCN1CCN(c2nc(NCCCN3CCOCC3)nc(N)c2[N+](=O)[O-])CC1	inactive: 124%
O=C(O)c1cccc(Nc2nc(-c3ccccc3)c3cc(Cl)ccc3n2)c1	inactive: 110%
Cc1cc2c(cc1C)NC(CC(=O)NC1CCCCC1)C(=O)N2 (configuration not stated)	inactive: 81.6%
Cc1nn(-c2cccc(Cl)c2)c2nc(-c3ccccn3)cc(C(F)(F)F)c12	inactive: 93.5%
COc1ccc2nc3sc(C(=O)NCCc4c[nH]c5ccccc45)c(N)c3cc2c1	inactive: 114%
CC1CCCCN1c1nc2c(c(=O)[nH]c(=O)n2C)n1Cc1ccccc1 (configuration not stated)	inactive: 121%
O=C(Nc1ccccc1)N1CCC(n2cnc3cc(F)ccc32)CC1	inactive: 99%
O=C(CSc1nc2ccccc2n1Cc1ccccc1F)Nc1ccc2c(c1)OCCO2	inactive: 58.2%
Cc1cccc(NC(=O)c2cccc3c2-c2ccccc2C3=O)n1	inactive: 91.1%
CC1(C)COc2ccc(NC(=O)C3CCCC3)cc2NC1=O	inactive: 115%
COC(=O)c1sc(-c2ccccc2)cc1NC(=O)c1cc(OC)cc(OC)c1	inactive: 123%
NC(=O)c1cc2cc(Cl)ccc2o/c1=N/NC(=O)c1cccc(F)c1	inactive: 109%

Quoted at random: four records from the list
Structure (SMILES)	intracellular bacterial bioluminescence
COC(=O)C1=C(NC(=O)c2cc3ccccc3oc2=O)CCS1	inactive: 83.8%
NC(=O)c1cc2cc(Cl)ccc2o/c1=N/NC(=O)c1cccc(F)c1	inactive: 109%
CC1CCCCN1c1nc2c(c(=O)[nH]c(=O)n2C)n1Cc1ccccc1 (configuration not stated)	inactive: 121%
Cc1cccc(NC(=O)c2cccc3c2-c2ccccc2C3=O)n1	inactive: 91.1%
